Reference: PMC3897744
No constants are given. Whether binding was seen depends on the method and setting. Binding seen in cells or lysates may run through a third protein. Some results given as binding are weak or reduced against the parent protein; the word gives no strength. For part of these data: Where a sequence is shown, tags or fusion partners need not be part of it.

Protein sequences, listed by entry. Tags and fused reporters are not part of them.
UniProt Q99570: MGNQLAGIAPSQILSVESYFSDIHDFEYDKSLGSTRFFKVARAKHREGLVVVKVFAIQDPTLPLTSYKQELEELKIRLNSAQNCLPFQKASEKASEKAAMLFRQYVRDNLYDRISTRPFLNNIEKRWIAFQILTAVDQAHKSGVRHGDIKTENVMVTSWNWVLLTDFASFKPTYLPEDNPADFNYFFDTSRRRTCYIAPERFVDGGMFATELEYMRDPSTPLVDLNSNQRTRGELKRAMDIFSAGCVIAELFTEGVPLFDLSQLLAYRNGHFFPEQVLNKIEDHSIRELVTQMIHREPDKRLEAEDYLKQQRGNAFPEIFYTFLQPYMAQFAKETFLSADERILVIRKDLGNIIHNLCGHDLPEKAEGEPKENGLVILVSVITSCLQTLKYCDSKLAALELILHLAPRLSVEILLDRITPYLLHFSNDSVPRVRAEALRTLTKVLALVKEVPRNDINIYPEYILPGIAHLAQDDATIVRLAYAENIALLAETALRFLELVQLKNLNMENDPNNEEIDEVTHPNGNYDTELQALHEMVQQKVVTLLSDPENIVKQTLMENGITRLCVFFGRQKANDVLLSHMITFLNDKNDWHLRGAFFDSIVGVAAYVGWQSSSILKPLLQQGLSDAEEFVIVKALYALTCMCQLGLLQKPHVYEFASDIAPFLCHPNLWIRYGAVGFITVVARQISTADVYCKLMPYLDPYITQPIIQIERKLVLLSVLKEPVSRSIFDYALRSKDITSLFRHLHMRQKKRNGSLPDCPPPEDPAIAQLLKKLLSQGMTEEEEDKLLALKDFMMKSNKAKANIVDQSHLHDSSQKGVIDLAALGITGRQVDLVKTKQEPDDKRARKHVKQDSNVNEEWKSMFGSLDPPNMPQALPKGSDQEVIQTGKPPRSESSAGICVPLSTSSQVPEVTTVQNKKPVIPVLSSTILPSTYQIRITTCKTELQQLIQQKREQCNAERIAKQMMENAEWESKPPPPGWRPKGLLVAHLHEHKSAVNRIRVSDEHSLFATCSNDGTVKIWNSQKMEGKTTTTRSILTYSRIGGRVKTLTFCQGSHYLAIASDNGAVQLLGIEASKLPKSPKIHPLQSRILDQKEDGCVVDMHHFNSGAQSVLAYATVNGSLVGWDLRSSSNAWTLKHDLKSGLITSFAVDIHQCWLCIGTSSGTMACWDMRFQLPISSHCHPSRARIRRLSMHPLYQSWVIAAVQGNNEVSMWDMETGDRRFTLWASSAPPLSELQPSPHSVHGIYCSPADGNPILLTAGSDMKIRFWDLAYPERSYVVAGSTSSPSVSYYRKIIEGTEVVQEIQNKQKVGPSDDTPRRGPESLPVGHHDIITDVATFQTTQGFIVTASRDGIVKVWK
UniProt Q8NEB9: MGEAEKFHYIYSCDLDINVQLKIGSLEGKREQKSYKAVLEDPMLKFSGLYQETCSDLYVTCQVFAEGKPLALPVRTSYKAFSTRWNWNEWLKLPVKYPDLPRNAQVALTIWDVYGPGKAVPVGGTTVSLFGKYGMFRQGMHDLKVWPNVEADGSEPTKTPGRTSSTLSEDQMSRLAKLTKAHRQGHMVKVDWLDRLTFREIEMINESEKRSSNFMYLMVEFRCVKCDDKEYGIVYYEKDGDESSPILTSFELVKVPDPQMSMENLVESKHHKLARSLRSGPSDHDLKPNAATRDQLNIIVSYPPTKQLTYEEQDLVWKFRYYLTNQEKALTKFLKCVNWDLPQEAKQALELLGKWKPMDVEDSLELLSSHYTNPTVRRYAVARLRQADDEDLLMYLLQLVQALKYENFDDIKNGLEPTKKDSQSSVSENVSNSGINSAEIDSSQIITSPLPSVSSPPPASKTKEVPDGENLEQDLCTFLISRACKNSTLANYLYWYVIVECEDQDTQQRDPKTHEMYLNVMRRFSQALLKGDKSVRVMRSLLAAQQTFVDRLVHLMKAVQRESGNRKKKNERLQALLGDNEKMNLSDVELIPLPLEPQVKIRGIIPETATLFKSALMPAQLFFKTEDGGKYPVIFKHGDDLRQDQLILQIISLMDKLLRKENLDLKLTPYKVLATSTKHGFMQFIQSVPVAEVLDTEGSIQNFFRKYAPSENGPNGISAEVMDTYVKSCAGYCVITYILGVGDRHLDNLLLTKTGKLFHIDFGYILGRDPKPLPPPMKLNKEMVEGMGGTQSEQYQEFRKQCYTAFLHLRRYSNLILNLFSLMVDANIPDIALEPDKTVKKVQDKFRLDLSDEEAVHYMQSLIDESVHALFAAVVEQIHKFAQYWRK

T1: Ric-8A tagged with GFP or mCherry (separate copies, control for inter-molecular FRET), Q9NPQ8
T1 chain: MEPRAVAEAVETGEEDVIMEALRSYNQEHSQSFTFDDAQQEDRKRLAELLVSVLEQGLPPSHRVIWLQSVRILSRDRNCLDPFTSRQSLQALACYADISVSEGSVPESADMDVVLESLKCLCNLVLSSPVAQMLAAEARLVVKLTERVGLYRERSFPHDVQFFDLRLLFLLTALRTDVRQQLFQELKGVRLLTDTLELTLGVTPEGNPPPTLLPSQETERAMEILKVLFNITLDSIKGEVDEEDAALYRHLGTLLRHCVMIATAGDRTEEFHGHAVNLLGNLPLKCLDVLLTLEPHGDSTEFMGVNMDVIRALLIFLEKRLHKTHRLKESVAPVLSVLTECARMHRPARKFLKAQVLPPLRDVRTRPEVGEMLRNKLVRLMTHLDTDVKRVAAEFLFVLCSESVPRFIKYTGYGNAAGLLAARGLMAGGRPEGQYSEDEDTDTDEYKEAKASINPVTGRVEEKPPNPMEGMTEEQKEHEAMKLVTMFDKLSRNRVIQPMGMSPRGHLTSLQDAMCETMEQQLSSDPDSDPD


How the values were obtained:
[1] = biological target: Vps15 (human (endogenous in HeLa)) (UniProt Q99570); assay: co-IP; endogenous proteins in HeLa lysates; precipitated with anti-Vps34, anti-Vps15 or anti-Ric-8A antibody and protein G-Sepharose, then immunoblotted; cells treated with PTX (200 ng/mL, 3 h) or vehicle in Figure 7E
[2] = biological target: Vps34 (vacuolar protein-sorting 34) (human (endogenous in HeLa)) (UniProt Q8NEB9); assay: as above
[3] = biological target: T1, Ric-8A tagged with GFP or mCherry …; assay: FRET or BRET; FRET by FLIM in live HeLa cells; GFP as donor and mCherry as acceptor on separate Ric-8A molecules (Figure S3A-B); details: remark: other sources report otherwise

Molecule | binding [1] | binding [2] | binding [3]
Resistance to inhibitors of cholinesterase (Ric)-8A (from UniProt Q9NPQ8-3 1-537) | binds | binds | 
Ric-8A tagged with GFP or mCherry (separate copies, control for inter-molecular FRET), Q9NPQ8 1-531 (protein) MEPRAVAEAVETGEEDVIMEALRSYNQEHSQSFTFDDAQQEDRKRLAELLVSVLEQGLPPSHRVIWLQSVRILSRDRNCLDPFTSRQSLQALACYADISVSEGSVPESADMDVVLESLKCLCNLVLSSPVAQMLAAEARLVVKLTERVGLYRERSFPHDVQFFDLRLLFLLTALRTDVRQQLFQELKGVRLLTDTLELTLGVTPEGNPPPTLLPSQETERAMEILKVLFNITLDSIKGEVDEEDAALYRHLGTLLRHCVMIATAGDRTEEFHGHAVNLLGNLPLKCLDVLLTLEPHGDSTEFMGVNMDVIRALLIFLEKRLHKTHRLKESVAPVLSVLTECARMHRPARKFLKAQVLPPLRDVRTRPEVGEMLRNKLVRLMTHLDTDVKRVAAEFLFVLCSESVPRFIKYTGYGNAAGLLAARGLMAGGRPEGQYSEDEDTDTDEYKEAKASINPVTGRVEEKPPNPMEGMTEEQKEHEAMKLVTMFDKLSRNRVIQPMGMSPRGHLTSLQDAMCETMEQQLSSDPDSDPD |  |  | no binding
